Test results published in PubChem BioAssay AID504834 (National Center for Advancing Translational Sciences (NCATS), 2011).
Hit rate of the full screen: of about 320,000 compounds, about 22,000 (6.9%) were called active. Inconclusive results, whose numbers are uncertain, are shown with a selection of clear calls. Calls come from the whole dose curve; as a rule, active = well fitted inhibition curve with a large enough effect; inconclusive = small, poorly fitted or top-dose-only effect, or another doubt; inactive = no such curve, though single readings can be large or run the other way. Potencies beside an inconclusive call are fits to weak or partial responses and may not hold up.

Test: Primary qHTS for delayed death inhibitors of the malarial parasite plastid, 96 hour incubation
Settings: P. falciparum luciferase reporter growth; series mostly up to 28.7 µM
How it was run: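 Two-generation exposure (96 h) targets delayed-death phenotype. Reporter parasites carrying integrated firefly luciferase, in red cells at 2% hematocrit and 0.05% parasitemia final, kept at 37 C, 5% CO2; luminescence loss indicates inhibition.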
Potency is the fitted concentration of half-maximal effect.

SMILES | Potency
COC(=O)[C@@H]1C(c2c(OC)cc(OC)cc2OC)=NO[C@H]1C(=O)OC | inactive
c1ccc(Cc2nnc(N3CCOCC3)c3ccccc23)cc1 | inconclusive: 8.28 µM [inhibitor, partial curve, poor fit]
CC(C)(C)c1ccc(C(CC(=O)O)NC(=O)Cc2ccc(F)cc2)cc1 (stereo not drawn) | inconclusive: 0.465 µM [inhibitor, partial curve, poor fit]
CCc1ccc(CN2CCC(n3nccc3NC(=O)c3ccc4c(c3)OCO4)CC2)cc1 | inconclusive: 18.5 µM [inhibitor, single point]
COc1cc(-c2nnc(SCC3(c4ccccc4)OCCO3)o2)cc(OC)c1OC | active: 5.22 µM
CN(C)CCN(C(=O)c1ccc(S(=O)(=O)N(C)CC2CCCO2)cc1)c1nc2cc3c(cc2s1)OCO3 (stereo not drawn) | inactive
CC1=NN(C(N)=S)C(=O)C1N=Nc1c(Cl)cc([N+](=O)[O-])cc1Cl (stereo not drawn) | inactive
Cc1ccc(N(C(=O)c2ccccc2Cl)C2=NC(C)CS2)c(C)c1 (stereo not drawn) | active: 14.7 µM
CC1CCN(C(=O)c2ccc3ccccc3c2)CC1 | inconclusive: 11.7 µM [inhibitor, single point]
CCSc1nnc(NC(=O)C(CC)Oc2ccccc2)s1 (stereo not drawn) | inconclusive: 11.7 µM [inhibitor, partial curve, poor fit]
Cn1c(CNC(=O)c2ccco2)nnc1SCC(=O)Nc1ccc(Cl)cc1 | inconclusive: 10.4 µM [inhibitor, partial curve]
CSCCC(NC(=O)COc1ccccc1)C(=O)N(C)Cc1ccc(Cl)cc1Cl (stereo not drawn) | inconclusive: 18.5 µM [inhibitor, single point]
CC(C)CCN(C(=S)Nc1cccc(F)c1)C1CCN(C(C)C)CC1 | inactive
CN1CCN(Cc2cc3c(cc2[N+](=O)[O-])OCO3)CC1 | inconclusive: 11.7 µM [inhibitor, single point]
CN=C1NN=C(c2cc(C)n(-c3ccc(Cl)cc3)c2C)CS1 | inconclusive: 14.7 µM [inhibitor, partial curve, poor fit]
O=C(N/N=C/c1cc(Br)ccc1O)C(c1ccncc1)N1CCOCC1 (stereo not drawn) | inconclusive: 14.7 µM [inhibitor, single point]
Cc1ccccc1S(=O)(=O)Cc1ccc(C(=O)N(C)C2CCCCC2)o1 | inconclusive: 14.7 µM [inhibitor, single point]
Cc1ccc(C)c(C(=O)CSc2n[nH]c(C(C)C)n2)c1 | inactive
CC(=O)NC(CC(=O)NCCN1C(=O)S/C(=C\c2ccccc2)C1=O)c1ccccc1 (stereo not drawn) | inconclusive: 13.1 µM [inhibitor, partial curve, poor fit]
COCCN(C(=O)CCl)C(C(=O)NC1CCCCC1)c1ccccc1C (stereo not drawn) | active: 8.28 µM
CCOC(=O)C(=CNc1cccnc1Oc1ccc(C)c2c1CCC2)C(=O)OCC | active: 8.28 µM
O=C(NCC(c1ccco1)N1CCc2ccccc21)c1cccc(F)c1 (stereo not drawn) | inconclusive: 18.5 µM [inhibitor, single point]
CCc1ccc(OCC(=O)O/N=C(\N)c2ccncc2)cc1 | inconclusive: 1.85 µM [inhibitor, partial curve, poor fit]

Three compounds from above, ordered by number of heavy atoms, largest number first.
SMILES | Potency
CSCCC(NC(=O)COc1ccccc1)C(=O)N(C)Cc1ccc(Cl)cc1Cl (stereo not drawn) | inconclusive: 18.5 µM [inhibitor, single point]
Cc1ccccc1S(=O)(=O)Cc1ccc(C(=O)N(C)C2CCCCC2)o1 | inconclusive: 14.7 µM [inhibitor, single point]
CC1CCN(C(=O)c2ccc3ccccc3c2)CC1 | inconclusive: 11.7 µM [inhibitor, single point]

(more compounds)

SMILES | Potency
COC(=O)c1ccc(NC(=S)N2CCCC2)cc1 | inconclusive: 1.65 µM [inhibitor, full curve]
COc1cccc(C2C(C#N)=C(N)Oc3cc(C)n(Cc4ccco4)c(=O)c32)c1 (stereo not drawn) | inactive
CC(C)NC(=O)c1cnc(N2CCN(c3ccccn3)CC2)c2ccccc12 | inconclusive: 18.5 µM [inhibitor, single point]
COCCNC(=O)Cn1nc(-c2ccccc2F)ccc1=O | active: 3.7 µM
O=C(CCCc1c[nH]c2ccccc12)N[C@@H](Cc1c[nH]c2ccccc12)C(=O)O | active: 8.28 µM
CCCCC1=CC2=C(c3ccco3)C(=O)C(C)(OC(=O)c3ccc(OC)cc3)C(=O)C2=CN1Cc1ccc(OC)cc1 (stereo not drawn) | inconclusive: 3.29 µM [inhibitor, partial curve, poor fit]
N#CC1=C(N)Oc2cc3ccccc3cc2C1c1cccs1 (stereo not drawn) | inactive
O=C(Nc1sc2c(c1C(=O)O)CCCC2)c1ccc(F)cc1 | inconclusive: 10.4 µM [inhibitor, single point]
CC(=Nc1ccccc1N)c1c(O)n(C)c(=O)n(C)c1=O | inconclusive: 4.65 µM [inhibitor, single point]
COc1ccccc1-n1c(=O)[nH]c2c(C(N)=O)nc(-c3cccnc3)nc21 | inconclusive: 16.5 µM [inhibitor, single point]
CCn1nc(C)cc1C(=O)N(C)C1CCCN(Cc2ccccc2F)C1 (stereo not drawn) | inconclusive: 0.586 µM [inhibitor, full curve, poor fit]
COc1ccc(/C=C(\C#N)C(=O)OCC(=O)NC2CC2)cc1 | inactive
COc1ccc(OCC(O)CN2CCN(c3ccc(Cl)cc3)CC2)cc1 (stereo not drawn) | inactive
N#C/C(=C1\C(=O)Nc2c(Cl)cc(Cl)cc21)c1nnc2n1CCCCC2 | inconclusive: 0.147 µM [inhibitor, full curve, poor fit]
CC(C)(C)/C=N/NC(=O)CNC(=O)c1ccc2c(c1)OCCO2 | inconclusive: 0.522 µM [inhibitor, full curve]
CCN(CC(=O)Nc1ccc(Cl)c(S(=O)(=O)N(C)C)c1)CC(=O)NC(C)C | inconclusive: 8.28 µM [inhibitor, partial curve, poor fit]
O=C(CCN1C(=O)c2ccccc2C1=O)C1=NN[C@@H]2C(=O)N(c3ccc(F)cc3)C(=O)[C@H]12 | inconclusive: 10.4 µM [inhibitor, single point]
O=C(O)Cn1c(=O)c(-c2ccccc2)nc2ccccc21 | active: 7.38 µM
COC(=O)c1ccccc1S(=O)(=O)NCc1nc2nc(C)cc(C)n2n1 | active: 13.1 µM
Cc1ccccc1N1CC(C(=O)Nc2ccc(S(=O)(=O)N3CCCC3)cc2)CC1=O (stereo not drawn) | inactive
Cc1nn(C(C)C(=O)N2CCOCC2)c(=O)c2nn(-c3ccccc3)c(C)c12 (stereo not drawn) | inconclusive: 1.65 µM [inhibitor, partial curve]
COc1cc2c(cc1OC)C(c1ccc(C)o1)CC(=O)N2 (stereo not drawn) | active: 13.1 µM
O=C(c1ccco1)N1CCN(C(c2cccs2)c2nnnn2C2CCCC2)CC1 (stereo not drawn) | inconclusive: 5.86 µM [inhibitor, partial curve]

SMILES | Potency
Cc1ccc(CNC(=O)c2ccc(N3CCC4(CC3)CC(c3cccc(Br)c3)=NO4)c([N+](=O)[O-])c2)cc1 | inconclusive: 14.7 µM [inhibitor, single point]
N#CCCN(C(=O)COc1ccc(Cl)cc1Cl)c1ccccc1 | inconclusive: 5.22 µM [inhibitor, partial curve, poor fit]
Cn1c(=O)c2c3c(sc2n2cnnc12)CCC3 | inconclusive: 1.31 µM [inhibitor, partial curve, poor fit]
CCOC(=O)c1sc(NC(=O)C2CC(=O)N(c3ccccc3OC)C2)nc1C (stereo not drawn) | inconclusive: 18.5 µM [inhibitor, single point]
COc1ccc(C(=O)Nc2cccc(C(=O)O)c2)cc1S(=O)(=O)N1CCCC1 | inactive
Cc1[nH]c2ccccc2c1C(=O)C(C)OC(=O)c1ccccc1NCCO (stereo not drawn) | inconclusive: 11.7 µM [inhibitor, single point]
COc1ccc(NC(=O)Cn2cnc3sc(C)c(S(=O)(=O)N4CCOCC4)c3c2=O)c(OC)c1 | inconclusive: 4.15 µM [inhibitor, single point]
COc1cccc(NC(=O)c2ccc3nc(C)sc3c2)c1 | inconclusive: 18.5 µM [inhibitor, single point]
CN(C)S(=O)(=O)c1ccc(C(=O)NCc2nnc(SCC(=O)Nc3ccc(F)cc3)n2-c2ccc(F)cc2)cc1 | inconclusive: 18.5 µM [inhibitor, single point]
CC(C)c1ccc(OCC(=O)Nc2cccc(C(=O)Nc3ccccc3C(=O)O)c2)cc1 | active: 9.28 µM
Cc1ccc(S(=O)(=O)N2CCN(C(=O)COc3ccc(Br)cc3)CC2)cc1 | inconclusive: 13.1 µM [inhibitor, single point]
CCN(Cc1ccccc1)c1ccc(/C=N/NC(=O)c2cccc(S(=O)(=O)N3CCOCC3)c2)cc1 | inconclusive: 14.7 µM [inhibitor, single point]
Cc1ccc(S(=O)(=O)NCCCCCC(=O)Nc2ccccc2)cc1 | inconclusive: 11.7 µM [inhibitor, single point]
Cc1nc(COc2ccccc2Cl)sc1-c1ccnc(N)n1 | inactive
Cc1ccc(S(=O)(=O)Nc2ccc(C(N)=O)cc2)cc1[N+](=O)[O-] | inconclusive: 18.5 µM [inhibitor, single point]
Cc1csc2nc(O)c(C(=O)NC3CCCCC3C)c(=O)n12 (stereo not drawn) | inconclusive: 14.7 µM [inhibitor, partial curve]
O=Cc1ccccc1Oc1ccccc1 | inactive
COc1ccc(CCNS(=O)(=O)c2cccc(S(=O)(=O)N3CCCC3)c2)cc1OC | inconclusive: 11.7 µM [inhibitor, single point]
CCC(C)C(NC(=O)CCC(=O)OCC(=O)[C@@]1(O)CCC2[C@@H]3CCC4=CC(=O)C=C[C@]4(C)C3[C@@H](O)C[C@@]21C)C(=O)O (stereo partly drawn) | inconclusive: 4.15 µM [inhibitor, full curve, poor fit]
Brc1ccc(CNCc2cccs2)cc1 | inactive
CCOc1ccc(-c2nnc3ccc(SCC(=O)NCc4ccco4)nn23)cc1 | inactive
Cn1c(=O)oc2cc(S(=O)(=O)Nc3ccccc3O)ccc21 | inactive
